The values are deposited in ChEMBL (CHEMBL3988442, “University of Dundee, Small-Polar-MMV Screening Library” (2021)).

The filed quantity is “Percent Effect” (%).
The controls that fix the scale are not given in the record; negative values are as filed.
This is an unselected part of the compounds tested.
A dash means the value is not listed here; it may have been measured.

A: 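Whole-cell assay for inhibitors of Mycobacterium tuberculosis growth, labelled Cornell in the record; the read-out is not stated. The concentration is filed as 10 mM, unlikely as a test dose, so the dose is not known. Higher means stronger inhibition (inferred from two other growth screens of the library). Of about 53,000 compounds tested this way, about 900 (1.7%) reached 50% or more in at least one test.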
B: 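Assay on Mycobacterium tuberculosis, filed only as a heat shock assay from Cornell; the read-out is not stated. The concentration is filed as 10 mM, unlikely as a test dose, so the dose is not known. Direction is inferred from retests: higher values go with stronger inhibition. Of about 69,000 compounds tested this way, about 930 (1.4%) reached 50% or more in at least one test.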

| # | Compound | A | B |
|---|---|---|---|
| 1 | `CN(Cc1cnn(C)c1)C(=O)Cc1ccc2c(c1)OCCO2` | -1.428% | -9.881% |
| 2 | `CC(=O)Nc1c(C)noc1/C=C\c1ccc(S(=O)(=O)NC2CC2)cc1` | - | 12.21% |
| 3 | `COc1cc(OC)cc(C2CC(=O)Nc3c2nc2n3CCCC2)c1` (configuration not stated) | 1.431% | -7.056% |
| 4 | `CN(C)Cc1nn(C)c2c1CN(C(=O)c1ccc[nH]1)C2.O=C(O)C(F)(F)F` | -5.171% | 1.554% |
| 5 | `CC(=O)N1CC2(CCCCN2Cc2ccc(Cl)cc2)Cc2ccccc21` (configuration not stated) | - | -18.11% |
| 6 | `Cc1ccc(CN2CCOCC2)cc1NC(=O)c1ccsc1` | 16.53% | 3.483% |
| 7 | `O=C1CCC(=O)N1CCN1CCC(=Cc2ccccc2)CC1` | 20.69% | -34.63% |
| 8 | `O=C(N[C@@H]1CCN(c2nc3ccccc3o2)C[C@H]1O)c1cnccn1` | - | 2.448% |
| 9 | `COc1ccc(OC)c(Sc2ncccc2C(=O)NCC2CC2)c1` | -10.42% | 35.14% |
| 10 | `CCOC(=O)CC1CCCCN1C(=O)c1cccc2ccnn12` (configuration not stated) | 15.22% | 0.04025% |
| 11 | `CCC(CO)N(Cc1cccnc1)C(=O)c1ccc(C)[nH]c1=O` (configuration not stated) | 5.934% | 22.38% |
| 12 | `[H][C@]12CCN(C(=O)c3ccc(OCCC)c(Cl)c3)C[C@]([H])(CC1)N2` | 12.16% | 26.85% |
| 13 | `CCc1csc(C2CCCN(C(=O)c3ccc(OC)nc3)C2)n1` (configuration not stated) | 14.11% | 6.483% |
| 14 | `O=C(C1CCOCC1)N1CCC(O)(Cn2ccc3ccncc32)CC1` | -3.808% | 3.852% |
| 15 | `Cc1ccc(O)c(CNCC(C)c2nc3ccccc3o2)n1` (configuration not stated) | - | -1.603% |
| 16 | `CC(C)(C)NC(=O)c1ccc(COCC(F)(F)F)o1` | -8.152% | 21.99% |
| 17 | `COCCOc1ccc(-c2noc([C@@H]3CCCN3)n2)cn1` | - | -17.9% |
| 18 | `COc1ccc(CC(=O)N2CCCC(c3cc(C)[nH]n3)C2)cc1` (configuration not stated) | - | -10.17% |
| 19 | `CC(C)C1CN(S(=O)(=O)Cc2cccc(C#N)c2)CCS1` (configuration not stated) | 30.63% | -18.14% |
| 20 | `[H][C@]12CC[C@]([H])(CN(S(=O)(=O)c3cc(Cl)ccc3OC)C1)N(C)C2=O` | - | -15.96% |
| 21 | `O=C1CCc2cc(S(=O)(=O)NC(=O)c3ccc4c(c3)CCO4)ccc2N1` | 23.95% | 4.918% |
| 22 | `Cc1cc(C)n(CC2CN(CCC(=O)NC3CCCCC3)CCO2)n1` (configuration not stated) | -4.136% | -20.44% |
| 23 | `CC(C)OCCCNC(=O)CN(c1ccc(F)c(F)c1)S(C)(=O)=O` | - | -8.34% |
| 24 | `COc1ccc(C2CC(=O)NCc3nc(N(C)C)sc32)c(O)c1` (configuration not stated) | - | 9.658% |
| 25 | `O=C(Cn1ccc2ccccc21)Nc1cc(N2CCCC2)ncn1` | 29.98% | -4.643% |
| 26 | `CCn1ccnc1CN1CCN(C(C)C(=O)NC2CCCC2)CC1` (configuration not stated) | - | 19.9% |
| 27 | `Cc1cc(C)n(C2CCCN(C(=O)c3cc(C4CC4)on3)C2)n1` (configuration not stated) | - | -19.8% |
| 28 | `CC(C)C(C(=O)N1CCCN(Cc2nccn2C)CC1)N1CCCC1` (configuration not stated) | -0.643% | 1.925% |
| 29 | `O=C(CCC1CCCO1)NCCN1CCCCC1` (configuration not stated) | -5.317% | 3.783% |
| 30 | `CC(C)[C@H]1COC(=O)N1Cc1noc(-c2ccccc2)n1` | - | -13.77% |
| 31 | `CC(C)c1[nH]c2ncccc2c1CN1CCOCC1.Cl` | 0.374% | 11.67% |
| 32 | `O=C(O)C(F)(F)F.c1coc(CNc2ncc3c(n2)C2(CCNC2)COC3)c1` (configuration not stated) | 15.59% | -5.62% |
| 33 | `Cc1ccc(CN2CCCC3(CCN(S(C)(=O)=O)C3)C2)o1.O=C(O)C(F)(F)F` (configuration not stated) | - | -2.18% |
| 34 | `Cc1nnc(CN(CCc2ccccc2)C2CCN(C)CC2)s1` | 38.05% | 0.5866% |
| 35 | `CCC(CN1CCCC1)NC(=O)Cc1c(C)[nH]c2cc(C)cc(C)c12` (configuration not stated) | -23.84% | 7.976% |
| 36 | `CC(C)(C)c1noc(CN2CCN(C(=O)c3cccs3)CC2)n1` | 11.74% | -7.537% |
| 37 | `CN(C)CCN(C)C(=O)c1ccccc1-n1cc(CN(C)C)cn1` | -27.41% | -15.03% |
| 38 | `Cc1c(Cn2ccnc2-c2cc(CN(C)C)cs2)cnn1C` | - | -26.11% |
| 39 | `Cc1nc(CCNC(=O)NC(C)Cn2cccn2)cs1` (configuration not stated) | - | -1.987% |
| 40 | `NC(=O)C1(c2cnccn2)CCCN1Cc1ccc(Cl)c(F)c1` (configuration not stated) | 19.59% | -7.961% |
| 41 | `COc1nc2c(cc1C(=O)N(C)Cc1[nH]nc3c1CCC3)CCC2` | 29.03% | 0.3103% |
| 42 | `CN1CCN2CCN(Cc3cnc(NCc4ccccc4)nc3)CC2C1` (configuration not stated) | 18.72% | -15.06% |
| 43 | `Cc1nc(CN2CCC23CCN(Cc2ccco2)CC3)cs1` | -15.8% | 77.77% |
| 44 | `O=C(O)C(F)(F)F.O=C1CC2(CCCCN2C(=O)c2ccncc2)CN1CC1CC1` (configuration not stated) | 0.4% | 3.323% |
| 45 | `COC(=O)N1CC(C)=C(C)CN1C(=O)Nc1ccc(Cl)cc1` | 13.94% | -8.57% |
| 46 | `CN(Cc1cccnc1)Cc1cncc2c1CCN(Cc1ccoc1)C2.Cl.Cl.Cl` | -5.625% | 15.64% |
| 47 | `CCCc1nnc(NC(=O)N2CCCC(NC(C)=O)C2)s1` (configuration not stated) | -108.6% | -6.407% |
| 48 | `O=C(C1CCOC1)N1Cc2ccccc2OC2(CCOCC2)C1` (configuration not stated) | -75.95% | -22.26% |
| 49 | `CCCn1cc(NC(=O)c2cccc3cccnc23)ccc1=O` | 24.97% | 16.25% |
| 50 | `COc1cccc(N2CCN(CC(O)c3cc(C)ccc3C)CC2)c1` (configuration not stated) | -17.91% | 0.6424% |
| 51 | `Cc1n[nH]c(C)c1CNC(=O)c1cn(CCC2CCCCN2)nn1` (configuration not stated) | -18.69% | 4.524% |
| 52 | `CN(C)CCn1ccnc1C1CCN(C(=O)CCc2ccncc2)CC1` | -33.89% | -51.68% |
| 53 | `Cn1ccc(C(=O)Nc2cc(F)ccc2OCC2CCCO2)cc1=O` (configuration not stated) | - | 8.883% |
| 54 | `CN1CCN([C@@H]2CCN(CC3=Cc4cc(Cl)ccc4OC3)C[C@H]2O)CC1` | 15.57% | -1.479% |
| 55 | `O=C(C1CCS(=O)(=O)C1)N1CCC(=Cc2cccc(F)c2)CC1` (configuration not stated) | - | 29.2% |
| 56 | `Cl.N#Cc1ccc(NC(=O)C2CSCN2)cc1` (configuration not stated) | 28.4% | 75.04% |
| 57 | `Cc1ccc(C(=O)Nc2cc(C(N)=O)ccc2N2CCCCC2)cc1F` | - | 4.244% |
| 58 | `Cc1ccccc1CC(=O)NCc1cnc(CC2CCN(C)CC2)cn1` | 48.16% | 6.371% |
| 59 | `CC(O)C(=O)N1CCC(c2[nH]ncc2-c2ccccc2)CC1` (configuration not stated) | -20.97% | 10.12% |
| 60 | `Cc1noc(C)c1CC(=O)N[C@@H]1CC[C@@H](Oc2ccccc2)[C@@H]1O` | 21.6% | -12.53% |
| 61 | `O=C(NCc1ccccc1)NCc1nc(-c2ccncc2)n[nH]1` | 13.27% | 13.84% |
| 62 | `Cc1ccc(-c2noc(C3CCN3C(=O)c3c(C)noc3C)n2)s1` (configuration not stated) | 48.41% | 27.72% |
| 63 | `CCCN1Cc2ccccc2NC(=O)C12CCNC2` (configuration not stated) | - | -8.024% |
| 64 | `CC(=O)NCc1ccc(C(=O)N2CCCc3c(F)ccc(C)c32)cc1` | 4.204% | -7.885% |
| 65 | `COC[C@@H]1CCCN1C(=O)c1cc(-c2ccc(OC)cc2)n[nH]1` | 25.91% | 31.51% |
| 66 | `[H][C@]12CC[C@]([H])(CN(Cc3cccc(C(=O)Nc4ccnn4C)c3)C1)N2` | 3.967% | 13.4% |
| 67 | `CC(=O)N1CCC(c2cncc(Cl)n2)CC1` | 20.66% | 9.427% |
| 68 | `CCn1ncnc1C1CC(=O)NCc2nc(N3CCCC3)sc21` (configuration not stated) | -0.6362% | -4.316% |
| 69 | `Cc1nc(C2CCN(C(=O)c3ccnn3C)CC2)c2sccn12` | -7.615% | -8.052% |
| 70 | `CCOC(=O)N1CC(=O)N(Cc2cccc(OC)c2OC)CC(O)C1` (configuration not stated) | 8.394% | 45.58% |
| 71 | `Cn1nc(CN2CCCCC2)c2c1CN(Cc1ccoc1)C2.O=C(O)C(F)(F)F.O=C(O)C(F)(F)F` | -3.779% | 0.786% |
| 72 | `O=C(O)CC1COCCN1Cc1ccccc1-c1ccccc1` (configuration not stated) | -16.6% | -4.775% |
| 73 | `Cc1c(F)cc(C(=O)O)cc1S(=O)(=O)Nc1ccccc1` | - | 1.164% |
| 74 | `[H][C@]12CC[C@]([H])(CN(C(=O)c3ccc(N(C)CCO)cc3)C1)N(CCC)C2` | 5.047% | -33.72% |
| 75 | `COc1ccc2cnn(CC(=O)NC3CCCCC3)c(=O)c2c1OC` | 9.616% | 2.414% |
| 76 | `CC(=O)N1CCOC(Cc2cccc(C(F)(F)F)c2)C1` (configuration not stated) | 25.26% | 12.96% |
| 77 | `Cc1noc(C(C)Nc2ccc3oc(C(C)C)nc3c2)n1` (configuration not stated) | - | 7.791% |

Repeated from the top, 4 entries:

- CN(Cc1cnn(C)c1)C(=O)Cc1ccc2c(c1)OCCO2 : A: -1.428%; B: -9.881%
- CC(=O)Nc1c(C)noc1/C=C\c1ccc(S(=O)(=O)NC2CC2)cc1 : B: 12.21%
- COc1cc(OC)cc(C2CC(=O)Nc3c2nc2n3CCCC2)c1 (configuration not stated) : A: 1.431%; B: -7.056%
- CN(C)Cc1nn(C)c2c1CN(C(=O)c1ccc[nH]1)C2.O=C(O)C(F)(F)F : A: -5.171%; B: 1.554%